Patent publication US20060216292A1
Results are given in words; binding and its absence hold for the method and conditions named. A result given as binding can be weak or reduced; the word gives no strength. Binding seen in cells or lysates may run through a third protein.

Each binder was assayed against TAP-tagged BACE1 (Homo sapiens (Human)) (assay: TAP purification of tagged bait, LC-MS/MS; novel interactor).

| Binder | binding |
| --- | --- |
| Thioredoxin domain-containing protein (protein) RRSNVRVITDENWRELLEGDWMIEFYAPWCPACQNLQPEWESFAEWGEDLEVNIAKVDVTEQPGLSGRFIITALPTIYHCKDGEFRRYQGPRTKKDFINFISDKEWKSIEPVSSWFGPGSVLMSSMSALFQLSMWIRTCHNYFIEDLGLPVWGSYTVFALATLFSGLLLGLCMIFVADCLCPSKRRRPQPYPYPSKKLLSESAQPLKKVEEEQEADEEDVSEEEAESKEGTNKDFPQNAIRQRSLGPSLATDKS | binds |
| Calsyntenin 1 (SEQ ID No:36) (protein) ARVNKHKPWLEPTYHGIVTENDNTVLLDPPLIALDKDAPLRFAESFEVTVTKEGEICGFKIHGQNVPFDAVVVDKSTGEGVIRSKEKLDCELQKDYSFTIQAYDCGKGPDGTNVKKSHKATVHIQVNDVNEYAPVFKEKSYKATVIEGKQYDSILRVEAVDADCSPQFSQICSYEIITPDVPFTVDKDGYIKNTEKLNYGKEHQYKLTVTAYDCGKKRATEDVLVKISIKPTCTPGWQGWNNRIEYEPGTGALAVFPNIHLETCDEPVASVQATVELETSHIGKGCDRDTYSEKSLHRLCGAAAGTAELLPSPSGSLNWTMGLPTDNGHDSDQVFEFNGTQAVRIPDGVVSVSPKEPFTISVWMRHGPFGRKKETILCSSDKTDMNRHHYSLYVHGCRLIFLFRQDPSEEKKYRPAEFHWKLNQVCDEEWHHYVLNVEFPSVTLYVDGTSHEPFSVTEDYPLHPSKIETQLVVGACWQEFSGVENDNETEPVTVASAGGDLHMTQFFRGNLAGLTLRSGKLADKKVIDCLYTCKEGLDLQVLEDSGRGVQIQAHPSQLVLTLEGEDLGELDKAMQHISYLNSRQFPTPGIRRLKITSTIKCFNEATCISVPPVDGYVMVLQPEEPKISLSGVHHFARAASEFESSEGVFLFPELRIISTITREVEPEGDGAEDPTVQESLVSEEIVHDLDTCEVTVEGEELNHEQESLEVDMARLQQKGIEVSSSELGMTFTGVDTMASYEEVLHLLRYRNWHARSLLDRKFKLICSELNGRYISNEFKVEVNVIHTANPMEHANHMAAQPQFVHPEHRSFVDLSGHNLANPHPFAVVPSTATVVIVVCVSFLVFMIILGVFRIRAAHRRTMRDQDTGKENEMDWDDSALTITVNPMETYEDQHSSEEEEEEEEEEESEDGEEEDDITSAESESSEEEEGEQGDPQNATRQQQLEWDDSTLSY | binds |
| SIM TO Y71H10A. 2.P. (protein) MVSIPEYYEGKNVLLTGATGFLGKVLLEKLLRSCPKVNSVYVLVRQKAGQTPQERVEEVLSGKLFDRLRDENPDFREKIIAINSELTQPKLALSEEDKEVIIDSTNIIFHCAATVRFNENLRDAVQLNVIATRQLILLAQQMKNLEVFMHVSTAYAYCNRKHIDEVVYPPPVDPKKLIDSLEWMDDGLVNDITPKLIGDRPNTYIYTKALAEYVVQQEGAKLNVAIVRPSIVGASWKEPFPGWIDNFNGPSGLFIAAGKGILRTIRASNNALADLVPVDVVVNMSLAAAWYSGVNRPRNIMVYNCTTGSTNPFHWGEVEYHVISTFKRNPLEQAFRRPNVNLTSNHLLYHYWIAVSHKAPAFLYDIYLRMTGRSPRCPSFKFNSNSLSHHYRKGVSHRVSALLLDCTHVDRSETATFNIDVRQLHWAEYIENYCLGTKKYVLNEEMSGLPAARKHLNKTLFSLFHTALCHGKLTFVDDTFGFPCLLASGGPLLSVSLHFSAYVYSQIHLAFILRDLGSHSAPSLASLAGPRELTVGSLLDREWRQIKTDDFELGKSAGEVDLEGADIEGCLLATSPAVRQQALLQRGVQWYISIPTTQETVAMEMQI | binds |
| STX10 (protein) SLEDPFFVVRGEVQKAVNTARGLYQRWCELLQESAAVGREELDWTTNELRNGLRSIEWDLEDLEETIGIVEANPGKFKLPAGDLQERKVFVERMREAVQEMKDHMVSPTAVAFLERNNREILAGKPAAQKSPSDLLDASAVSATSRYIEEQQATQQLIMDEQDQQLEMVSGSIQVLKHMSGRVGEELDEQGIMLDAFAQEMDHTQSRMDGVLRKLAKVSHMTSDRRQWCAIAVLVGVLLLVLILLFSL | binds |
| CGI-13 (protein) MSFLIDSSIMITSQILFFGFGWLFFMRQLFKDYEIRQYVVQVIFSVTFAFSCTMFELIIFEILGVLNSSSRYFHWKMNLCVILLILVFMVPFYIGYFIVSNIRLLHKQRLLFSCLLWLTFMYFFWKLGDPFPILSPKHGILSIEQLISRVGVIGVTLMALLSGFGAVNCPYTYMSYFLRNVTDTDILALERRLLQTMDMIISKKKRMAMARRTMFQKGEVHNKPSGFWGMIKSVTTSASGSENLTLIQQEVDALEELSRQLFLETADLYATKERIEYSKTFKGKYFNFLGYFFSIYCVWKIFMATINIVFDRVGKTDPVTRGIEITVNYLGIQFDVKFWSQHISFILVGIIIVTSIRGLLITLTKFFYAISSSKSSNVIVLLLAQIMGMYFVSSVLLIRMSMPLEYRTIITEVLGELQFNFYHRWFDVIFLVSALSSILFLYLAHKQAPEKQMAP | binds |
| Integral membrane transporter protein (protein) MVNYAWAGRSQRKLWWRSVAVLTCKSVVRPGYRGGLQARRSTLLKTCARARATAPGAMKMVAPWTRFYSNSCCLCCHVRTGTILLGVWYLIINAVVLLILLSALADPDQYNFSSSELGGDFEFMDDANMCIAIAISLLMILICAMATYGAYKQRAAWIIPFFCYQIFDFALNMLVAITVLIYPNSIQEYIRQLPPNFPYRDDVMSVNPTCLVLIILLFISIILTFKGYLISCVWNCYRYINGRNSSDVLVYVTSNDTTVLLPPYDDATVNGAAKEPPPPYVSA | binds |
| PTK7 (SEQ ID No:80) (receptor) AIVFIKQPSSQDALQGRRALLRCEVEAPGPVHVYWLLDGAPVQDTERRFAQGSSLSFAAVDPLQDSGTFQCVARDDVTGEEARSANASFNIKWIEAGPVVLKHPASEAEIQPQTQVKLRCHIDGHPRPTYQWFRDGTPLSDGQSNHTVSSKERNLTLRPAGPEHSGLYSCCAHSAFSQACSSQNFTLSIADESFARVVLAPQDVVVARYEEAMFHCQFSAQPPPSLQWLFEDETPITNRSRPPHLRRATVFANGSLLLTQVRPRNAGIYRCIGQGQRGPPIILEATLHLAEIEDMPLFEPRVFTAGSEERVTCLPPKGLPEPSVWWEHAGVRLPTHGRVYQKGHELVLANIAESDAGVYTCHAANLAGQRRQDVNITVATVPSWLKKPQDSQLEEGKPGYLDCLTQATPKPTVVWYRNQMLISEDSRFEVFKNGTLRINSVEVYDGTWYRCMSSTPAGSIEAQAVLQVLEKLKFTPPPQPQQCMGFDKEATVPCSATGREKPTIKWERADGSSLPEWVTDNAGTLHFARVTRDDAGNYTCIASNGPQGQIRAHVQLTVAVFITFKVEPERTTVYQGHTALLQCEAQGDPKPLIQWKGKDRILDPTKLGPRMHIFQNGSLVIHDVAPEDSGRYTCIAGNSCNIKHTEAPLYVVDKPVPEESEGPGSPPPYKMIQTIGLSVGAAVAYIIAVLGLMFYCKKRCKAKRLQKQPEGEEPEMECLNGGPLQNGQPSAEIQEEVALTSLGSGPAATNKRHSTSDKMHFPRSSLQPITTLGKSEFGEVFLAKAQGLEEGVAETLVLVKSLQSKDEQQQLDFRRELEMFGKLNHANVVRLLGLCREAEPHYMVLEYVDLEDLKQFLRISKSKDEKLKSQPLSTKQKVALCTQVALGMEHLSNNRFVHKDLAARNCLVSAQRQVKVSALGLSKDVYNSEYYHFRQAWVALRWMSPEAILEGDFSTKSDVWASGVLMWEVFTHGEMPHGGQADDEVLADLQAGKARLPQPEGCPSKLYRLMQRCWALSPKDRPSFSEIASALGDSTVDSKP | binds |
